Test results as given in the supplement of paper PMC5407854, “Inhibitor of ppGalNAc-T3-mediated O-glycosylation blocks cancer cell invasiveness and lowers FGF23 levels” (eLife, 2017).
The list shows a part of the results. Small differences around the control level are noise.

Assays:
ppGalNAc-T3 sensor = test: T3 sensor activation Q score (MG/GFP ratio z-score vs DMSO controls) (SD units); higher = more sensor activation (inhibition of ppGalNAc-T3 glycosylation); details: HEK293 sensor cells; 10 µM; 6 h
Method: (§1)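 Cells were treated with compound at 10 uM for 6 h, then MG/GFP ratio was read by flow cytometry (10,000 cells per well, duplicate wells). Q = (R - R_neg)/SD_neg relative to DMSO vehicle controls; the signal rises when the glycosyltransferase is inhibited.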

ppGalNAc-T2 sensor = test: T2 sensor activation Q score (MG/GFP ratio z-score vs DMSO controls) (SD units); higher = more sensor activation (inhibition of ppGalNAc-T2 glycosylation); details: HEK293 sensor cells; 10 µM; 6 h
Method: as §1

Row | SMILES | T3 sensor activation Q score (ppGalNAc-T3 sensor) | T2 sensor activation Q score (ppGalNAc-T2 sensor)
1 | COc1ccc(N2C(=O)CC(N3CCN(C/C=C/c4ccccc4)CC3)C2=O)cc1 (stereo not drawn) | 0.025 | 1.43
2 | COc1cc(OC)cc(C(=O)NCc2ccccc2Cl)c1 | -0.515 | -0.13
3 | CC1(C)CC(=O)C=C(NCC2CCNCC2)C1 | -0.05 | -0.465
4 | CCC1(CC)C(=O)N=C(N)NC1=O | 0.7 | -1.67
5 | Cc1ccc2oc(-c3cccc(NC(=O)c4ccccc4)c3)nc2c1 | 0.495 | 1
6 | C(=C\c1ccccc1)/CN1CCN(c2ncccn2)CC1 | 0.71 | 0.29
7 | COc1cc2sc3ccccc3c(=O)c2cc1OC | 0.57 | -0.585
8 | O=[N+]([O-])c1ccc(CNc2ccc(F)cc2)s1 | 0.37 | 0.2
9 | COc1cc(S(=O)(=O)N2CCC(C)CC2)c(OC)cc1Cl | 1.67 | 0.105
10 | Cc1c(Cl)cccc1NC(=O)c1ccco1 | 0.345 | -0.4
11 | O=[N+]([O-])c1ccc(NCCNCCO)cc1N1CCOCC1 | 1.41 | 0.64
12 | O=[N+]([O-])c1cccc(CN2CCN(Cc3ccc4c(c3)OCO4)CC2)c1 | 0.63 | -0.285
13 | Nc1ccccc1-c1nc2ccccc2[nH]1 | 0.6 | -0.36
14 | Cc1ccc(SC2CC(=O)N(c3ccccc3)C2=O)cc1 (stereo not drawn) | 0.385 | -0.87
15 | CCCN1CCC(NCc2cccc(Cl)c2)CC1 | 0.415 | -0.675
16 | CCN(CC)S(=O)(=O)c1cc(C(=O)O)c(Cl)cc1Cl | -2.08 | -0.005
17 | Cc1cccc(C(=O)N2CCOCC2)c1 | 0.31 | -0.425
18 | Cc1cccc(C)c1NC(=O)c1nccnc1C(=O)O | -0.28 | -1.84
19 | O=C(Nc1ccc(-c2ccccc2)cc1)c1ccccc1Br | -0.355 | -1.42

Two entries from above, set out differently.
O=[N+]([O-])c1cccc(CN2CCN(Cc3ccc4c(c3)OCO4)CC2)c1
  T3 sensor activation Q score (ppGalNAc-T3 sensor): 0.63; T2 sensor activation Q score (ppGalNAc-T2 sensor): -0.285
Nc1ccccc1-c1nc2ccccc2[nH]1
  T3 sensor activation Q score (ppGalNAc-T3 sensor): 0.6; T2 sensor activation Q score (ppGalNAc-T2 sensor): -0.36
